Values from PubChem BioAssay AID1224830 (NIAID, 2016).
In all, the deposit lists about 18,000 reagents; shown is an unselected part. About 2,900 of all reagents (16%) were called active. 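Calls are made per well; low scores hint the gene aids the LPS response, high scores that it dampens it.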 A number with no mark means an inactive call. Repeated entries: four replicate wells of each siRNA pool.

Assay: 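Host factors that control LPS-induced TNF expression in human macrophages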 (primary screen)
Cell system: human THP-1 monocytic leukaemia cells, TNF dual-luciferase reporter clone, PMA-differentiated to macrophage-like cells
Reagents: siRNA pool against human genes, 50 nM
Time to read-out: LPS for 4 h, given about 3 days after siRNA transfection
Challenge: bacterial LPS (TLR4 ligand), 10 ng/ml
Read-out: 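TNF firefly reporter luminescence divided by renilla, normalised to the plate median, then turned into a robust z-score for each replicate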
Scale: TNF reporter robust z-score: higher = stronger TNF reporter response to LPS
Call rule: 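Each well counts as active if its z-score is over 2.8 or under -1.5; controls are left without a call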

target gene | TNF reporter robust z-score
GET4 (GeneID 51608) | -0.42
GET4 (GeneID 51608) | -0.95
GET4 (GeneID 51608) | -1.03
GET4 (GeneID 51608) | 0.21
RCOR2 (GeneID 283248) | -0.49
RCOR2 (GeneID 283248) | -1.41
RCOR2 (GeneID 283248) | -0.67
RCOR2 (GeneID 283248) | 0.11
ABCD3 (GeneID 5825) | -1.2
ABCD3 (GeneID 5825) | -0.04
ABCD3 (GeneID 5825) | -1.13
ABCD3 (GeneID 5825) | 1.02
SPANXN1 (GeneID 494118) | -0.73
SPANXN1 (GeneID 494118) | -0.52
SPANXN1 (GeneID 494118) | -1.12
SPANXN1 (GeneID 494118) | -1.16
RALGAPA2 (GeneID 57186) | -0.85
RALGAPA2 (GeneID 57186) | -0.74
RALGAPA2 (GeneID 57186) | 0.24
RALGAPA2 (GeneID 57186) | -0.81
GPCPD1 (GeneID 56261) | -0.19
GPCPD1 (GeneID 56261) | 0.08
GPCPD1 (GeneID 56261) | 0.07
GPCPD1 (GeneID 56261) | 1.1
EIF3D (GeneID 8664) | 0.29
EIF3D (GeneID 8664) | 0.88
EIF3D (GeneID 8664) | -0.04
EIF3D (GeneID 8664) | 0.45
RGS7BP (GeneID 401190) | -0.83
RGS7BP (GeneID 401190) | -0.84
RGS7BP (GeneID 401190) | -1.01
RGS7BP (GeneID 401190) | -0.74
BMPR1B (GeneID 658) | -1.29
BMPR1B (GeneID 658) | -1.06
BMPR1B (GeneID 658) | -1.12
BMPR1B (GeneID 658) | -0.9
GPR108 (GeneID 56927) | 1.63
GPR108 (GeneID 56927) | 1.26
GPR108 (GeneID 56927) | 0.85
GPR108 (GeneID 56927) | 2.17
EFNA3 (GeneID 1944) | 0.59
EFNA3 (GeneID 1944) | 1.31
EFNA3 (GeneID 1944) | 0.78
EFNA3 (GeneID 1944) | 1.02
ACAD10 (GeneID 80724) | -1.1
ACAD10 (GeneID 80724) | -0.65
ACAD10 (GeneID 80724) | -1.34
ACAD10 (GeneID 80724) | -0.79
CALML3 (GeneID 810) | 2.14
CALML3 (GeneID 810) | 0.58
CALML3 (GeneID 810) | 1.53
CALML3 (GeneID 810) | 0.69
KCNK1 (GeneID 3775) | -0.55
KCNK1 (GeneID 3775) | 0.4
KCNK1 (GeneID 3775) | -0.9
KCNK1 (GeneID 3775) | -0.19
SSX3 (GeneID 10214) | 0.03
SSX3 (GeneID 10214) | 0.21
SSX3 (GeneID 10214) | 0.07
SSX3 (GeneID 10214) | 0.39
CNST (GeneID 163882) | -0.38
CNST (GeneID 163882) | -0.04
CNST (GeneID 163882) | 0.01
CNST (GeneID 163882) | -0.74
H6PD (GeneID 9563) | 1.25
H6PD (GeneID 9563) | 0.29
H6PD (GeneID 9563) | -0.05
H6PD (GeneID 9563) | -0.69
ANXA11 (GeneID 311) | -0.67
ANXA11 (GeneID 311) | 0.37
ANXA11 (GeneID 311) | -0.18
ANXA11 (GeneID 311) | 0.41
RSPH3 (GeneID 83861) | 0.77
RSPH3 (GeneID 83861) | 1.28
RSPH3 (GeneID 83861) | 0
RSPH3 (GeneID 83861) | 1.19
AK8 (GeneID 158067) | 0.85
AK8 (GeneID 158067) | 2.43
AK8 (GeneID 158067) | 0.4
AK8 (GeneID 158067) | -0.15
MRPS25 (GeneID 64432) | -1.07
MRPS25 (GeneID 64432) | -1.31
MRPS25 (GeneID 64432) | -0.84
MRPS25 (GeneID 64432) | 0.56
C1QC (GeneID 714) | 0.6
C1QC (GeneID 714) | -0.18
C1QC (GeneID 714) | -0.83
C1QC (GeneID 714) | 0.41
TBC1D10B (GeneID 26000) | 0.53
TBC1D10B (GeneID 26000) | 0.58
TBC1D10B (GeneID 26000) | 0.96
TBC1D10B (GeneID 26000) | 0.69
SLC2A4 (GeneID 6517) | -0.27
SLC2A4 (GeneID 6517) | -0.46
SLC2A4 (GeneID 6517) | -0.63
GPR176 (GeneID 11245) | 1.87
GPR176 (GeneID 11245) | 0.66
GPR176 (GeneID 11245) | -0.24
GPR176 (GeneID 11245) | -0.29
NUDT13 (GeneID 25961) | 1.27
NUDT13 (GeneID 25961) | 0.52
NUDT13 (GeneID 25961) | -0.44
NUDT13 (GeneID 25961) | 0.27
DCTN6 (GeneID 10671) | -0.32
DCTN6 (GeneID 10671) | -0.16
DCTN6 (GeneID 10671) | -0.13
DCTN6 (GeneID 10671) | 0.05
ULK4 (GeneID 54986) | -1.17
ULK4 (GeneID 54986) | 0.03
ULK4 (GeneID 54986) | -1.01
ULK4 (GeneID 54986) | 0.92
